Measurements published in PubChem BioAssay AID1347423 (Functional Genomics Laboratory (NCATS/FGL), 2020).
Screen size: about 52,000 sequences; about 210 (0.4%) were called active.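 How the source made its calls: active means gene whose silencing raises cell survival under the drug, median off-target-corrected z-score across its silencing RNAs 2 or more; inactive means the rest.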 This is one part of the list.

Experiment: Resistance to Poly (ADP-Ribose) Polymerase inhibitor: Gene Identification via Genome-wide siRNA Screen
Details: mouse BRCA2 R2336H ES cells, olaparib, CellTiter-Glo viability; active compounds read high
Summary of the method: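 Mouse BRCA2 R2336H ES cells were reverse-transfected with siRNA (20 nM final), treated at 48 h with 500 nM olaparib, and read by CellTiter-Glo after 72 h. Scores: MAD-based z per siRNA, median per gene, seed off-target correction.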
In the case of GCCAGACUUUGUUUUUGCUTT against BC061212, the z-score is reported as inactive: -0.31.
For GGCAGUAGCAUUUAGAAGGTT against Socs3, the z-score was inactive: 0.307.
With “GCACAUUGAUGCUUAAACGTT against 2310014H19Rik” the z-score was inactive: -1.69.
For GGCUUUCAAGCUAACUGAUTT against Sf3b2, the z-score was inactive: -3.27.
For GUGCAGGUCCUAAUCUGAATT against Asb1, the z-score was inactive: -2.07.
With “GCUUGAGUUGGACCUUCACTT against A930031F18Rik” the z-score was inactive: 1.27.
With GCCAGCAACAGGAUGAUAUTT against Prkwnk1 the z-score was inactive: -1.02.
In the case of “GGCUGUUCUACGAAGAAAATT against 4921517D22Rik”, the z-score is reported as inactive: -0.442.
For GCUCAAAUAACUCCACCACTT against Pola1, the z-score was inactive: -1.11.
In the case of CCGGCUCAUCCAUUAUUGGTT against Atp6v0b, the z-score is reported as inactive: -0.185.
In the case of “GGUUUUCUACAGGAGAGACTT against 9430015G10Rik”, the z-score is reported as inactive: 2.39.
With GUAGAGGUUAUAUAGCAGATT against Ms4a6d the z-score was inactive: 0.457.
With CCUAUACCGAGCAAACAUCTT against Crebbp the z-score was inactive: 1.14.
For GGCAACUUGCUCAUCAUUGTT against Olfr1356, the z-score was inactive: 0.57.
In the case of GCUCACCACGCUAAACUGUTT against Trpm6, the z-score is reported as inactive: 0.68.
In the case of GGAGGACUGCCAGAAAUACTT against Myd88, the z-score is reported as inactive: 1.63.
With CCUACAUCCUCGCUUUUGCTT against Ptcd2 the z-score was inactive: -0.0113.
For GGAGGCCCAAUGAUUAGCATT against Ntan1, the z-score was inactive: -1.55.
For “GGACACUUCCAUGUGCUACTT against 1500031L02Rik”, the z-score was inactive: 0.526.
In the case of GGAUUCACACCGUGAAGGUTT against AI256775, the z-score is reported as inactive: 0.231.
In the case of CCAAGUUCUCAUGGUUCUGTT against Serpina3k, the z-score is reported as inactive: -1.59.
In the case of GCCCUGAACUACCUAGAAATT against Alg5, the z-score is reported as inactive: -0.585.
For CCAUCAAUUUGGAGACUAUTT against Cav1, the z-score was inactive: -1.07.
With GGAACAUGUUUAUAUGGUATT against Iigp1 the z-score was inactive: 0.979.
With GGGAUUUACACUCACUCCUTT against Tle2 the z-score was inactive: 0.0573.
In the case of GGAAUUGUCUAAAUUGGCUTT against Hoxd1, the z-score is reported as inactive: 1.63.
In the case of GGCAUCUCCACCUUUUCAUTT against Abcc9, the z-score is reported as inactive: 1.66.
In the case of “GGUUAUCCUGUUACAGUACTT against 2610039E05Rik”, the z-score is reported as inactive: -1.58.
With GGAAUUCAAAACCUUCUAUTT against Rai14 the z-score was inactive: -0.067.
With GGAGAGCUCCUAUAAUCCUTT against Plau the z-score was inactive: -0.657.
With CCCAAAUAACAGAGAAAUGTT against Siat8f the z-score was inactive: 3.16.
For GCUGUUGAUUGUAAGCAAUTT against Mtap, the z-score was inactive: 0.21.
In the case of “GCGUAUCUUCAACGUGGGATT against 9130227C08Rik”, the z-score is reported as inactive: 0.104.
In the case of CCAGUUCAGAGAUUAUCUUTT against Olfr826, the z-score is reported as inactive: 0.032.
For GGAGGAGAAGAAACACCUGTT against Kns2, the z-score was inactive: 0.627.
With GGCACUCCUGAUGUUCUCUTT against Cyb561d2 the z-score was inactive: -0.852.
With AAGAGCCAUUAAUCGAGAATT against Cklf the z-score was inactive: -0.618.
For GGUGGAAGCUAGAAACCUATT against Cpne1, the z-score was inactive: 1.28.
In the case of GGGAAAAGCAAACACUAAUTT against C1d, the z-score is reported as inactive: 1.58.
With GGCUGAGAUCUGAAAUUGATT against Krt2-5 the z-score was inactive: 0.59.
For GGGAUGCUUUGUUGCUGUUTT against Olfr836, the z-score was inactive: -0.872.
For CGCGUAGAUAAGAAGUAUUTT against Anks1, the z-score was inactive: 0.276.
In the case of “GAGGGAAACUAUUCUAGACTT against 1700113O17Rik”, the z-score is reported as inactive: -0.763.
For GCUGAGGUAUUCAUUAUAGTT against LOC260408, the z-score was inactive: 1.33.
For GGUUUUUAUACUCUGGGAUTT against Elavl1, the z-score was inactive: 2.57.
With CCAUAGGUUUCGGCAUGACTT against Kcnk12 the z-score was inactive: -0.356.
With “GGAUGAGGACAAACACGUGTT against 1810023B24Rik” the z-score was inactive: -0.497.
For CCUCAUCAAGACCUACAAGTT against Dyrk1b, the z-score was inactive: 0.575.
With GGAUAUGCUGUGAAGUAUUTT against Plekhf2 the z-score was inactive: -0.892.
In the case of GGAAGAUGCGCUUUCACAUTT against BC049816, the z-score is reported as inactive: -0.0215.
For GCAUACAAUCAUGUAAGAGTT against Adprh, the z-score was inactive: 0.333.
For GGACCGAGUACACCAUGAGTT against Calu, the z-score was inactive: 1.56.
In the case of “GCCUAGCAUUCUUGUGCAATT against 1700093K21Rik”, the z-score is reported as inactive: 0.598.
With GCAAAAUGAGAUAGAUCGUTT against Nxf the z-score was inactive: 0.322.
For GGCCGCAUACUGAUGAAAGTT against Scgn, the z-score was inactive: 0.642.
In the case of GAAGACUUCAAUCAACCAGTT against Trim6, the z-score is reported as inactive: -1.32.
In the case of GGACUUCAUGGCUAGUUUCTT against B4galt4, the z-score is reported as inactive: -1.11.
In the case of “GCAUUACACUUAACUGACGTT against 9530033F24Rik”, the z-score is reported as inactive: 0.082.
For GCUAUUCGGCUAAAGCAGCTT against Etfdh, the z-score was inactive: -0.272.
With “CCGGCUAAUACUGUUGUGGTT against 0610009C03Rik” the z-score was inactive: -0.821.
With “GCAUGACAGUCAACACAAGTT against 4930471M23Rik” the z-score was inactive: 0.21.
With “GGUAGUUAACACAAAAUUGTT against 4932438H23Rik” the z-score was inactive: 1.1.
With GGGCACCAUCAACAUGAACTT against AA536749 the z-score was inactive: 0.0864.
In the case of GGAGUCCCAAACCUUCUCATT against Spata3, the z-score is reported as inactive: -0.208.
For CCUGGUAUACGUUUACAAUTT against Lama4, the z-score was inactive: 0.457.
In the case of “GGGCUUCACUCCACUGCAUTT against G431002C21Rik”, the z-score is reported as inactive: -0.236.
For GCUCAUAAAAUGGCUACUGTT against LOC406217, the z-score was inactive: -0.269.
For CGGUGGAAAUACCAGGAUGTT against Tshb, the z-score was inactive: 2.17.
In the case of GCCCACCAUGUCGUAUGUGTT against Hils1, the z-score is reported as inactive: -0.142.
For GGAACUCAAACUUUUCGUATT against Mtap1b, the z-score was inactive: -0.379.
For GGAUUGAAGUCCCUUUACUTT against Zdhhc16, the z-score was inactive: 0.352.
With GCUGUACCCAUCUGAUCACTT against Galntl2 the z-score was inactive: 0.7.
In the case of “CGAUAUCUUACUUCUUUUGTT against E030011O05Rik”, the z-score is reported as inactive: 0.994.
With GCUAUUAAUAUCCUGGUCCTT against Slc7a2 the z-score was inactive: 0.272.
In the case of GGUUCCUCUCAAUUCCACCTT against Cav3, the z-score is reported as inactive: 0.0199.
For “GGAUCUGGAGCAGCUUCAGTT against 2810471M23Rik”, the z-score was inactive: -1.7.
In the case of GGUAUUUAUGAAGCACACATT against Clcn3, the z-score is reported as inactive: -0.0226.
For GGUGUCUGCCAGGAGAAAUTT against Dexi, the z-score was inactive: -1.33.
In the case of GAAUCUCCAUUCUCCCAUGTT against Olfr1301, the z-score is reported as inactive: -0.311.
With GGGUUUUUUCCAGUCAUCUTT against Nfx1 the z-score was inactive: -0.19.
With GGAGAAAAAGUAAAUGGUGTT against Psmd7 the z-score was inactive: -2.08.
With GAAUAUGGAGGCACCAAAGTT against Hspe1 the z-score was inactive: 0.0238.
For “CGUGUUGACUUGUAUUUGUTT against C630002M10Rik”, the z-score was inactive: 0.592.
In the case of GGUGGCAUUAAGGAAAUCATT against Olfr147, the z-score is reported as inactive: 0.568.
In the case of GGUGCAAUCGUGUUGAGCUTT against Dap3, the z-score is reported as inactive: 0.349.
In the case of “GGUUCUGAAAUGCAUGGAGTT against 1200013I08Rik”, the z-score is reported as inactive: 0.19.
In the case of “CCCAUCACUUUAACCAAAGTT against 1110001P11Rik”, the z-score is reported as inactive: 0.3.
With GGGAUCAUGUAAAUUCCACTT against Pde9a the z-score was inactive: -0.428.
In the case of “GGCACACAUUUUCAAGGGCTT against 1200003E16Rik”, the z-score is reported as inactive: 0.063.
With “GGAGAAGAAACGGAAAUGATT against 5830427H10Rik” the z-score was inactive: 0.173.
In the case of GCGAUCAAAAAAGUUGCCUTT against AU040829, the z-score is reported as inactive: -0.328.
For “GGAGUUAUUCUGUUCUCUCTT against 4930563A03Rik”, the z-score was inactive: 1.96.
With GGACAGUUCAAUGAGGACATT against Arl10b the z-score was inactive: -2.
With GCCCAUCGAUCCUAAGGAATT against Ccrn4l the z-score was inactive: 2.38.
For GGGAAAUUAUUACCAAAAGTT against BC004022, the z-score was inactive: 0.508.
With “CCCAUGAUGCCAUCUUUAATT against 2410002F23Rik” the z-score was inactive: -1.28.
With GCAUUGUUUGGGAAUGCCCTT against Olfr1396 the z-score was inactive: 0.246.
In the case of GGUUUGACUGUCAGUAUUUTT against Cds1, the z-score is reported as inactive: -0.173.
In the case of GGAGAGGGAUUAGCCAGUATT against Ank3, the z-score is reported as inactive: -1.18.
In the case of GGAGAUGAAGUUAAAGCGATT against Slc26a6, the z-score is reported as inactive: -0.466.
For “GGUCAGGUUGAGGACAUAATT against 4932416A11Rik”, the z-score was inactive: -1.95.
For GGGAGAUAAAACCAACUUUTT against Fkbp3, the z-score was inactive: 1.03.
In the case of “GGCCAUCCAGAAUUACAUGTT against B130052G07Rik”, the z-score is reported as inactive: -1.01.
